Results are given in words; binding and its absence hold for the method and conditions named. In cells and extracts the contact can be indirect. Some results given as binding are weak or reduced against the parent protein; the word gives no strength.
Molecular target: T1, Ataxin-10 (endogenous, HUVEC) (human (endogenous in HUVEC)) (UniProt Q9UBB4)
T1 sequence: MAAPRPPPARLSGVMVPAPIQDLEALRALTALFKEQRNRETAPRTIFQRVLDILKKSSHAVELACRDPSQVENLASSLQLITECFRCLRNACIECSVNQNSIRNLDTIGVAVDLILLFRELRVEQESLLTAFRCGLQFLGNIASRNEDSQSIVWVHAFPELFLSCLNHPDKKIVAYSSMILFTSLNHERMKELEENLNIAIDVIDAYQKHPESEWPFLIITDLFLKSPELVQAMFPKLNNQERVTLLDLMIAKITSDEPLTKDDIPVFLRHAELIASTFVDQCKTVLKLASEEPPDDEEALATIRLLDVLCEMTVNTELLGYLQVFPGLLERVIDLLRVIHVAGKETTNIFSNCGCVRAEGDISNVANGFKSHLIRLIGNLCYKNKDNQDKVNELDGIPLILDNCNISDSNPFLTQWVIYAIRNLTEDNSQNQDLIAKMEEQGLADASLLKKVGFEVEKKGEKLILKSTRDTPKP
Test: co-IP; HUVECs treated with 10 ng/mL TNF-α for 2 hours; lysates incubated with anti-Ataxin-10 antibody or normal IgG; endogenous proteins

B1: interferon regulatory factor-1 (endogenous, HUVEC) (protein, UniProt P10914 1-325)
chain: MPITRMRMRPWLEMQINSNQIPGLIWINKEEMIFQIPWKHAAKHGWDINKDACLFRSWAIHTGRYKAGEKEPDPKTWKANFRCAMNSLPDIEEVKDQSRNKGSSAVRVYRMLPPLTKNQRKERKSKSSRDAKSKAKRKSCGDSSPDTFSDGLSSSTLPDDHSSYTVPGYMQDLEVEQALTPALSPCAVSSTLPDWHIPVEVVPDSTSDLYNFQVSPMPSTSEATTDEDEEGKLPEDIMKLLEQSEWQPTNVDGKGYLLNEPGVQPTSVYGDFSCKEEPEIDSPGGDIGLSLQRVFTDLKNMDATWLDSLLTPVRLPSIQAIPCAP
For B1, the binding was “binds”.

— PMC8632433
